15 molecules from paper PMC13070255 can be followed below.

Sequences of proteins named here, by UniProt entry; tags and fusion partners are left off. A change or cut given only in a name is not applied to a line headed by its entry.
UniProt Q8IUD2: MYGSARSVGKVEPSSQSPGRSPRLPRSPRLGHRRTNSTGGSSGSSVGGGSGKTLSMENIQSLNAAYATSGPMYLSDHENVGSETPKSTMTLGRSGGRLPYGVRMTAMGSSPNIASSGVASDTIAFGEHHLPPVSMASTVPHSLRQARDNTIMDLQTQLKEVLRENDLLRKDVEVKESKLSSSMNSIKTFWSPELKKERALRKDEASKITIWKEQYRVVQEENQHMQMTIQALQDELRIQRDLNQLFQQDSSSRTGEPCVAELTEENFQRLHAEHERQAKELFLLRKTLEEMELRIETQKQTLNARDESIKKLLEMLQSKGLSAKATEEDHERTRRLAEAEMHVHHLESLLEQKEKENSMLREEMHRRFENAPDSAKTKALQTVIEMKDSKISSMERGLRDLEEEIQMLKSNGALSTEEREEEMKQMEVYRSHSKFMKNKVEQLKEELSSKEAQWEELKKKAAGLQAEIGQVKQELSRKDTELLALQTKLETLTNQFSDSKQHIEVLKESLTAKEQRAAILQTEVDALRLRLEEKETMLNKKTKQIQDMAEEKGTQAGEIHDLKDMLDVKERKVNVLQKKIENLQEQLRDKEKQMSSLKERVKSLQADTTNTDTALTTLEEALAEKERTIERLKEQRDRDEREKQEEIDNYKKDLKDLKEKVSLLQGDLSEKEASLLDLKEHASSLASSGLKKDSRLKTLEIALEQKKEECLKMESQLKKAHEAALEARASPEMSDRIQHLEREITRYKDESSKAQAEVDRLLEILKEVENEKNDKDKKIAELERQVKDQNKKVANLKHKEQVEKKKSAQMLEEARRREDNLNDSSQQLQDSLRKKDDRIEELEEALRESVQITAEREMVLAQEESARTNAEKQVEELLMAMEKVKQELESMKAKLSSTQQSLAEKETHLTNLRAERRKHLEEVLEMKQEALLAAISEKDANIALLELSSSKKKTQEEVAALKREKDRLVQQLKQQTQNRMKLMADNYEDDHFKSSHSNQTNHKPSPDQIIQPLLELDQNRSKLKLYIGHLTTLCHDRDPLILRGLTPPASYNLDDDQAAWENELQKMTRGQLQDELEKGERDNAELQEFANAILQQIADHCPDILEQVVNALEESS
UniProt P62993: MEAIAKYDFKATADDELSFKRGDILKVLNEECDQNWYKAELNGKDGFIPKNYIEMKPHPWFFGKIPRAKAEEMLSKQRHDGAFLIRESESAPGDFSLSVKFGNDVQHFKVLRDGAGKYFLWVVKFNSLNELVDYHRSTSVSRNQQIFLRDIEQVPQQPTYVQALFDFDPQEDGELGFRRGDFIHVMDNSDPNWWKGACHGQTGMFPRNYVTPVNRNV
UniProt P46940: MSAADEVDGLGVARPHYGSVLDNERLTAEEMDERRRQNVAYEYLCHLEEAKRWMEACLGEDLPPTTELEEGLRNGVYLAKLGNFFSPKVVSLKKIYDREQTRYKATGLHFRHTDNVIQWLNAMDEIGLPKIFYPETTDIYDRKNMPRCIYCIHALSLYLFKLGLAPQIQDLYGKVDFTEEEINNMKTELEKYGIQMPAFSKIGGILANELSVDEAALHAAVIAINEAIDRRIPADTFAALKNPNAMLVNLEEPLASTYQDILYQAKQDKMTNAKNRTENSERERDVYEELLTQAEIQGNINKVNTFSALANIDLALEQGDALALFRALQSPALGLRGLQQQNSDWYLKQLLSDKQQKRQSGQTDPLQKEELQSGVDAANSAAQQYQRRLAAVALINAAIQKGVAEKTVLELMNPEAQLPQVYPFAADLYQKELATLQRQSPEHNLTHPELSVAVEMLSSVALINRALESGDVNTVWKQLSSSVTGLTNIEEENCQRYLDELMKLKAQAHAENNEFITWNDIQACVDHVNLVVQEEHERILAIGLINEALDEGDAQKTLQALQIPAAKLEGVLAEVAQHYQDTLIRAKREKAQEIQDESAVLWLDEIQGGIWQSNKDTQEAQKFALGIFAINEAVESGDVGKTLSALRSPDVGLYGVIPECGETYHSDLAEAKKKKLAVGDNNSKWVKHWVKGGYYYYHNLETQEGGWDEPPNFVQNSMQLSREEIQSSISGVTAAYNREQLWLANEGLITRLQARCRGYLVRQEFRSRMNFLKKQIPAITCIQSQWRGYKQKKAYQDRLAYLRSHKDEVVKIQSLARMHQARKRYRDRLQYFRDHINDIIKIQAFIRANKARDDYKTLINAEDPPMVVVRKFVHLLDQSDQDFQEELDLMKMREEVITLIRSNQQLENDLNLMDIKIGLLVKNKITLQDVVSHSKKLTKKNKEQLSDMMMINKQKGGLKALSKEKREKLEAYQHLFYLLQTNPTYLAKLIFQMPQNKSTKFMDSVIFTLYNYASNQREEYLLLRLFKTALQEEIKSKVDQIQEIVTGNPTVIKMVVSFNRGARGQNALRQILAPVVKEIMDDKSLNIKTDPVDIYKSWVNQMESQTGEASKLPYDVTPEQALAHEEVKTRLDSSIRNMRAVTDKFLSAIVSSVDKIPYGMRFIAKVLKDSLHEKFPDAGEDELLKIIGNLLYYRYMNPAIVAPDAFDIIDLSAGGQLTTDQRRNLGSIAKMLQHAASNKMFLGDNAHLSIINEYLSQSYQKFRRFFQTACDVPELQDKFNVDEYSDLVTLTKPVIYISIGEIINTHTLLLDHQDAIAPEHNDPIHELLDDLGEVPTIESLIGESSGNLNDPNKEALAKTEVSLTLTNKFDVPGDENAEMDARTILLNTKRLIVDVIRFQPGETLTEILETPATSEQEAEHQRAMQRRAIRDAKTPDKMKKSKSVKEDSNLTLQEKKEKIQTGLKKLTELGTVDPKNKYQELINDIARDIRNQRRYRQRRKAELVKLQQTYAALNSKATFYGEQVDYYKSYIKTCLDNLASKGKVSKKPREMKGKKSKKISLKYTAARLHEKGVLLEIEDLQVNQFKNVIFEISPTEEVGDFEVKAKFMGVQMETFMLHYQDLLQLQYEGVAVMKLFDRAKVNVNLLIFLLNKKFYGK
UniProt O95819: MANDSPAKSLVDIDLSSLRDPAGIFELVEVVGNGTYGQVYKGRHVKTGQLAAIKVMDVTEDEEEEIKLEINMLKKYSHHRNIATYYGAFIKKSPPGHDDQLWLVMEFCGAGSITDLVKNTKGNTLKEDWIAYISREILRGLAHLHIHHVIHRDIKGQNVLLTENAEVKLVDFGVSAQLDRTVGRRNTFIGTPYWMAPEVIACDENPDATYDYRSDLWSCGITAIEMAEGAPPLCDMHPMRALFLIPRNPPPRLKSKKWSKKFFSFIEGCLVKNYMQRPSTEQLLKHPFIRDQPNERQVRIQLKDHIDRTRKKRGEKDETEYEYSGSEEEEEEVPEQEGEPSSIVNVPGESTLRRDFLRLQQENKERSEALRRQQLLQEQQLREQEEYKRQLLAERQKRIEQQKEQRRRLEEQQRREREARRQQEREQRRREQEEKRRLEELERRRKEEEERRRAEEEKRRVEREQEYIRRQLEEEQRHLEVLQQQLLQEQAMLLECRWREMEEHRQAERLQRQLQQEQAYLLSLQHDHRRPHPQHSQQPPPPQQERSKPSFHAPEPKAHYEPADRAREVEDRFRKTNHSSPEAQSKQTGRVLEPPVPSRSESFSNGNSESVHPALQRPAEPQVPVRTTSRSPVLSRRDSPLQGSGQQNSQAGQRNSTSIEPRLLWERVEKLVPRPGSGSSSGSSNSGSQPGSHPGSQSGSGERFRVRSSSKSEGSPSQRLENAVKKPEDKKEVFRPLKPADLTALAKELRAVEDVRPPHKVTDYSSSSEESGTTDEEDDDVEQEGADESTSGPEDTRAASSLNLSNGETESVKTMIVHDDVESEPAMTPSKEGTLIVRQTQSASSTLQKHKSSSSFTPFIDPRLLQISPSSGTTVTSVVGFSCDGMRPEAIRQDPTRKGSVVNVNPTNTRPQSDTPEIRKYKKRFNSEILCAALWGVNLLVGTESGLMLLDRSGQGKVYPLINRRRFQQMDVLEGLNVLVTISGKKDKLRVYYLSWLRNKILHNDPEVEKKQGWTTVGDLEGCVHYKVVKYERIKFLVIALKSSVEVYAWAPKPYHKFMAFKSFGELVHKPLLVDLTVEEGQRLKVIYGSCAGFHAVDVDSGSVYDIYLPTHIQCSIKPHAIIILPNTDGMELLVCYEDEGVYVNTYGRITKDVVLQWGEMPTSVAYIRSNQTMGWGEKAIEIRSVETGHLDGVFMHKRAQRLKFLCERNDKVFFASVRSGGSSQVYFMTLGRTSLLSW
UniProt Q99570: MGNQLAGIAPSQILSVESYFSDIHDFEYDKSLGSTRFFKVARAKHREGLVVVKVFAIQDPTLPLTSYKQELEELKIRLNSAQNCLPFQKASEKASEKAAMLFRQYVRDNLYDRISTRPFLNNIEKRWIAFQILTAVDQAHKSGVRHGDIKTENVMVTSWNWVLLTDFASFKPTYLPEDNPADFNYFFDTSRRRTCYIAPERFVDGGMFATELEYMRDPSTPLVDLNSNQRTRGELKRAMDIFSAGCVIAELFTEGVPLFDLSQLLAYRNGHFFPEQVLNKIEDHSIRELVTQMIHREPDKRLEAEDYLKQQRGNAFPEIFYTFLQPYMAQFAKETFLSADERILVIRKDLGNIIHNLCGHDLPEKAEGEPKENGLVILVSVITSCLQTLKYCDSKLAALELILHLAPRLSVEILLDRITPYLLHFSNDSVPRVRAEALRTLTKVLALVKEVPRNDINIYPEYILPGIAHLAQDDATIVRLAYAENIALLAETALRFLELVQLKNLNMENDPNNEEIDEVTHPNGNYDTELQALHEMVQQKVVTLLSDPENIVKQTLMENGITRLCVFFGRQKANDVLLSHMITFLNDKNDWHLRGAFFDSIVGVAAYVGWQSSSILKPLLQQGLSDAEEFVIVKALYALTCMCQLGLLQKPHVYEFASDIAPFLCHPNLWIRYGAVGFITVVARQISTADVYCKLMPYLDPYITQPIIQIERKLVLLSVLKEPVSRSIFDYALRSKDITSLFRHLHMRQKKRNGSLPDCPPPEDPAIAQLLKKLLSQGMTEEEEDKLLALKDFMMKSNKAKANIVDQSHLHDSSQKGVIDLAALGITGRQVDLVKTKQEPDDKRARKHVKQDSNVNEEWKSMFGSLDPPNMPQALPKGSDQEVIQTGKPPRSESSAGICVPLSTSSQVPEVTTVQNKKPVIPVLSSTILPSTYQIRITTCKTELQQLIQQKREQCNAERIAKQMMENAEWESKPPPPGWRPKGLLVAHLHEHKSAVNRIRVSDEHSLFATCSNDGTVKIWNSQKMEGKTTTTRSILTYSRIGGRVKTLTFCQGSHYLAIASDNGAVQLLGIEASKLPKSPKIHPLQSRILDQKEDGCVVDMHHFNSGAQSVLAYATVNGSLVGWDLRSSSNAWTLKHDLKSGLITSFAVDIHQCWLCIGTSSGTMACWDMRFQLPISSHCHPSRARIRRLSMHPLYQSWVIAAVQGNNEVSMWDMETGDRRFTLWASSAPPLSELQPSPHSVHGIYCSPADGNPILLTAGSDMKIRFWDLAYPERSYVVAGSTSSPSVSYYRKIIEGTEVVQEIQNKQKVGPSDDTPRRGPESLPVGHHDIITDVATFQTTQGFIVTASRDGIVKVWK
UniProt P05556: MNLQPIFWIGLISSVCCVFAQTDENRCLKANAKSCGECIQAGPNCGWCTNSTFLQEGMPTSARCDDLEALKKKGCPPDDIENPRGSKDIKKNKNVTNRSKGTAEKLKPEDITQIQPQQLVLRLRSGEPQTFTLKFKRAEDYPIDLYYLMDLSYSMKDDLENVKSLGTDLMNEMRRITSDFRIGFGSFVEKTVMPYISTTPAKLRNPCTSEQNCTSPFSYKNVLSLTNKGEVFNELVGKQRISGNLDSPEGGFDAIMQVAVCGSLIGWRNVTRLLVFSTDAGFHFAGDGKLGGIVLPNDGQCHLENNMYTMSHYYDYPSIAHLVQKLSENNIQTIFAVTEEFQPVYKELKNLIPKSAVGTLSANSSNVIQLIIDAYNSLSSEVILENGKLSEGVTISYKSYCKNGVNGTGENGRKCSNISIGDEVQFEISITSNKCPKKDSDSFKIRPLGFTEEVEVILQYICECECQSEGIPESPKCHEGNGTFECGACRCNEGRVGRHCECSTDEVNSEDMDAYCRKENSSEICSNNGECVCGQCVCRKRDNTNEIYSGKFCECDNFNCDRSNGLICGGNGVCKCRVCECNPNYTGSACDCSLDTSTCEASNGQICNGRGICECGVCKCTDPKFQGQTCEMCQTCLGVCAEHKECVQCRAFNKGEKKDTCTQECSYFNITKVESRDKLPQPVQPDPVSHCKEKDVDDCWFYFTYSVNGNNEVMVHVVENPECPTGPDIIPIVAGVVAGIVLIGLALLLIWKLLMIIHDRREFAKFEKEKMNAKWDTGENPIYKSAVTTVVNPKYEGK

Experiment [1] has as its target T1, HA–MERTK (MERTK with an extracellular HA tag) (human) (UniProt Q12866).
T1 sequence: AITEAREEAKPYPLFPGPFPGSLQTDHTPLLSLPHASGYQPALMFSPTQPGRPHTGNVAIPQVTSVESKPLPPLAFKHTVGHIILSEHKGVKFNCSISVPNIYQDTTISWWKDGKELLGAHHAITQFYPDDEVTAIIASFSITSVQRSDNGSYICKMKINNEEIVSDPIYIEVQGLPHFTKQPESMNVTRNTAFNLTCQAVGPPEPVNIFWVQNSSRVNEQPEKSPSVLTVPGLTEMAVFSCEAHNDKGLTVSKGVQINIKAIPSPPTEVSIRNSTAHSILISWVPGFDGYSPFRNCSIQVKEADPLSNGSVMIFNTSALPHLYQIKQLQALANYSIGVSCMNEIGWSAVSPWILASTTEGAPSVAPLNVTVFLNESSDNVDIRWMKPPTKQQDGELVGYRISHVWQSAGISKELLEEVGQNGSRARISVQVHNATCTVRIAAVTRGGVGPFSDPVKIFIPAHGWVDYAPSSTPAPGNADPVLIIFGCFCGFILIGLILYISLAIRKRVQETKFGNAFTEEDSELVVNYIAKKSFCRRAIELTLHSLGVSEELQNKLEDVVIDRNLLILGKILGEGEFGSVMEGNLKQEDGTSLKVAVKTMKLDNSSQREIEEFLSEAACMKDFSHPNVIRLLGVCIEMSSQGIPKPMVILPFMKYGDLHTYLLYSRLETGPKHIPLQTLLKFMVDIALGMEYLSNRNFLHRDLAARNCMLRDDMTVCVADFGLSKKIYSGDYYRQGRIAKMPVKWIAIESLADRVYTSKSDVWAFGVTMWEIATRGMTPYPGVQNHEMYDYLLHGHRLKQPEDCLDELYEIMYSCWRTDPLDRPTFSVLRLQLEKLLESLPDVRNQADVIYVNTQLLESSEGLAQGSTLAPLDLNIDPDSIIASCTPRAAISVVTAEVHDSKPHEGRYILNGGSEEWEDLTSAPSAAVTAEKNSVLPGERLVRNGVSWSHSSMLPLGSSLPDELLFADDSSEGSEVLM
As to the kind of experiment: affinity purification with mass spectrometry; resting HA–MERTK-expressing cells reversibly cross-linked (ReCLIP: 0.5 mM DSP and 1.0 mM DTME, 20 min, room temperature), lysed in RIPA buffer; anti-HA with Protein A/G beads against an isotype control, 4°C; bands unique to the anti-HA lane cut from SDS-PAGE, trypsin, AB Sciex 5800 TOF/TOF, MASCOT; only proteins present in three independent experiments.

Experiment [2] has as its target T1, HA–MERTK (MERTK with an extracellular HA tag) (human). The experiment is described as above. This is another data set of the same source.

Read-outs that look alike come from different tables or passages of the source. These are yes or no findings as the source states them, for the method shown. Binding seen in cells or lysates may run through a third protein. Here binding means that the protein was enriched with, or labelled near, the bait; the list need not be complete. For part of these data: A no says only that the protein was not detected with the bait. Where a sequence is shown, tags or fusion partners need not be part of it.

As to AKAP9 (from UniProt Q99996 1-3907), the binding entry in experiment [1] is “binds”.
As to ARHGAP9 (from UniProt Q9BRR9 1-750), the binding entry in experiment [1] is recorded as “binds”.
In the case of Erc1 (from UniProt Q8IUD2 1-1116), the binding entry in experiment [1] is on record as “binds”.
Consider “Fgr (from UniProt P09769 1-529) (enzyme)”, for which, in experiment [1], the binding result is recorded as “binds”.
As for “Fyn (from UniProt P06241 1-537) (enzyme)”, the binding result in experiment [1] is “binds”.
The same measure, in the same setting: the entry for Grb2 (from UniProt P62993 1-217) is “no binding”; for ILK (from UniProt Q13418 1-452) it is “binds”; for IQGAP1 (from UniProt P46940 1-1657) it is “binds”.
“MAP4K4 (from UniProt O95819 1-1239) (enzyme)”: in experiment [1], the binding entry was “binds”.
The same measure, in the same setting: the entry for PI3R4 (from UniProt Q99570 1-1358) is “binds”; for “β1 integrin (from UniProt P05556 21-798) (receptor)” it is “binds”.

B1: RASA2 (protein, UniProt Q15283 1-850)
chain: MAAAAPAAAAASSEAPAASATAEPEAGDQDSREVRVLQSLRGKICEAKNLLPYLGPHKMRDCFCTINLDQEEVYRTQVVEKSLSPFFSEEFYFEIPRTFQYLSFYVYDKNVLQRDLRIGKVAIKKEDLCNHSGKETWFSLQPVDSNSEVQGKVHLELKLNELITENGTVCQQLVVHIKACHGLPLINGQSCDPYATVSLVGPSRNDQKKTKVKKKTSNPQFNEIFYFEVTRSSSYTRKSQFQVEEEDIEKLEIRIDLWNNGNLVQDVFLGEIKVPVNVLRTDSSHQAWYLLQPRDNGNKSSKTDDLGSLRLNICYTEDYVLPSEYYGPLKTLLLKSPDVQPISASAAYILSEICRDKNDAVLPLVRLLLHHDKLVPFATAVAELDLKDTQDANTIFRGNSLATRCLDEMMKIVGGHYLKVTLKPILDEICDSSKSCEIDPIKLKEGDNVENNKENLRYYVDKLFNTIVKSSMSCPTVMCDIFYSLRQMATQRFPNDPHVQYSAVSSFVFLRFFAVAVVSPHTFHLRPHHPDAQTIRTLTLISKTIQTLGSWGSLSKSKSSFKETFMCEFFKMFQEEGYIIAVKKFLDEISSTETKESSGTSEPVHLKEGEMYKRAQGRTRIGKKNFKKRWFCLTSRELTYHKQPGSKDAIYTIPVKNILAVEKLEESSFNKKNMFQVIHTEKPLYVQANNCVEANEWIDVLCRVSRCNQNRLSFYHPSVYLNGNWLCCQETGENTLGCKPCTAGVPADIQIDIDEDRETERIYSLFTLSLLKLQKMEEACGTIAVYQGPQKEPDDYSNFVIEDSVTTFKTIQQIKSIIEKLDEPHEKYRKKRSSSAKYGSKENPIVGKAS
As to B1, in experiment [2], the binding entry was “binds”.

B2: RhoE (protein, UniProt P61587 1-244)
chain: MKERRASQKLSSKSIMDPNQNVKCKIVVVGDSQCGKTALLHVFAKDCFPENYVPTVFENYTASFEIDTQRIELSLWDTSGSPYYDNVRPLSYPDSDAVLICFDISRPETLDSVLKKWKGEIQEFCPNTKMLLVGCKSDLRTDVSTLVELSNHRQTPVSYDQGANMAKQIGAATYIECSALQSENSVRDIFHVATLACVNKTNKNVKRNKSQRATKRISHMPSRPELSAVATDLRKDKAKSCTVM
In the case of B2, in experiment [2], the binding result is “binds”.

B3: PI42C (enzyme, UniProt Q8TBX8 1-421)
chain: MASSSVPPATVSAATAGPGPGFGFASKTKKKHFVQQKVKVFRAADPLVGVFLWGVAHSINELSQVPPPVMLLPDDFKASSKIKVNNHLFHRENLPSHFKFKEYCPQVFRNLRDRFGIDDQDYLVSLTRNPPSESEGSDGRFLISYDRTLVIKEVSSEDIADMHSNLSNYHQYIVKCHGNTLLPQFLGMYRVSVDNEDSYMLVMRNMFSHRLPVHRKYDLKGSLVSREASDKEKVKELPTLKDMDFLNKNQKVYIGEEEKKIFLEKLKRDVEFLVQLKIMDYSLLLGIHDIIRGSEPEEEAPVREDESEVDGDCSLTGPPALVGSYGTSPEGIGGYIHSHRPLGPGEFESFIDVYAIRSAEGAPQKEVYFMGLIDILTQYDAKKKAAHAAKTVKHGAGAEISTVHPEQYAKRFLDFITNIFA
Consider B3, for which the binding result in experiment [2] is given as “binds”.

B4: PIP4K2B (enzyme, UniProt P78356 1-416)
chain: MSSNCTSTTAVAVAPLSASKTKTKKKHFVCQKVKLFRASEPILSVLMWGVNHTINELSNVPVPVMLMPDDFKAYSKIKVDNHLFNKENLPSRFKFKEYCPMVFRNLRERFGIDDQDYQNSVTRSAPINSDSQGRCGTRFLTTYDRRFVIKTVSSEDVAEMHNILKKYHQFIVECHGNTLLPQFLGMYRLTVDGVETYMVVTRNVFSHRLTVHRKYDLKGSTVAREASDKEKAKDLPTFKDNDFLNEGQKLHVGEESKKNFLEKLKRDVEFLAQLKIMDYSLLVGIHDVDRAEQEEMEVEERAEDEECENDGVGGNLLCSYGTPPDSPGNLLSFPRFFGPGEFDPSVDVYAMKSHESSPKKEVYFMAIIDILTPYDTKKKAAHAAKTVKHGAGAEISTVNPEQYSKRFNEFMSNILT
Consider B4, for which the binding entry in experiment [2] is recorded as “binds”.
